PubChem BioAssay AID743448, Peter MacCallum Cancer Centre – 2014
Shown is a random part of the 106 reagents, under one of the conditions tested. 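Calls are per line and drug panel including etoposide, not vorinostat-specific; gene picks needed hits in two or more extra lines with vorinostat versus etoposide.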 Entries without a mark were called inactive. Not all columns of the deposit are shown. No sequences are given here.

Aim: 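Test whether knock-downs sensitising to vorinostat hold across several colon lines but not etoposide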 (follow-up of hits)
Cell system: four human colon cancer cell lines: HCT116-VR (vorinostat-resistant HCT116 derivative), SW480, SW620 and LIM1215
Knock-down reagent: siRNA pool against human genes, 40 nM siRNA pool
Time to read-out: drug added two days after transfection, read one day later
Challenge: vorinostat 2.5 µM on one half of each plate, etoposide 5 µM on the other half
Cell line and drug panel: SW620 cells with etoposide
Detection: 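Caspase 3/7 activity by luminescence and live-cell viability by fluorescence, each given as a ratio to mock-transfected wells and as a robust z-score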
Scale: caspase ratio to mock: higher = more caspase activity than mock; viability ratio to mock: higher = more live cells than mock
Hit rule: 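Hit means caspase ratio to mock at least 1.6, or viability ratio to mock at most 0.75; wells with strong death in the absence of drug get no call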
Calls: active = caspase or viability hit in this panel; inactive = no change, or unhealthy well

FLII showed caspase ratio to mock 2.15 (active); viability ratio to mock 0.97.
Silencing of CNOT3 resulted in: caspase ratio to mock 1.21; viability ratio to mock 0.96.
Silencing of EIF1AX resulted in: caspase ratio to mock 0.88 (active); viability ratio to mock 0.75.
After knock-down of ANO9 the results were caspase ratio to mock 1.02; viability ratio to mock 0.96.
GNG8 showed caspase ratio to mock 1.55 (active); viability ratio to mock 0.64.
For RNF186, the values are caspase ratio to mock 0.45; viability ratio to mock 0.96.
HSPA6 gave caspase ratio to mock 0.97; viability ratio to mock 0.93.
After knock-down of TGM5, the screen gave caspase ratio to mock 0.82; viability ratio to mock 0.98.
Knock-down of THAP3 gave: caspase ratio to mock 1.5; viability ratio to mock 0.84.
Knock-down of C22orf15 resulted in: caspase ratio to mock 1.09; viability ratio to mock 0.94.
PSMD13 showed caspase ratio to mock 0.87; viability ratio to mock 0.9.
With knock-down of INTS6L, the screen gave caspase ratio to mock 0.95; viability ratio to mock 0.84.
For RBM42, the values are caspase ratio to mock 0.5; viability ratio to mock 0.82.
DPPA5 gave caspase ratio to mock 1.31; viability ratio to mock 0.88.
THOC5 gave caspase ratio to mock 1.2; viability ratio to mock 0.83.
Knock-down of LRP3 came out at: caspase ratio to mock 0.88; viability ratio to mock 0.84.

A portion from the list above, for reference:
PSMD13 | caspase ratio to mock = 0.87; viability ratio to mock = 0.9
INTS6L | caspase ratio to mock = 0.95; viability ratio to mock = 0.84

Next records:
After knock-down of PSMD4, the screen gave caspase ratio to mock 0.82; viability ratio to mock 0.92.
With knock-down of NUP93 the results were caspase ratio to mock 1.05; viability ratio to mock 0.87.
Knock-down of CNOT1 resulted in: caspase ratio to mock 1.54; viability ratio to mock 0.89.
For EIF2S1, the values are caspase ratio to mock 0.8 (active); viability ratio to mock 0.62.
For SIN3A the deposit lists caspase ratio to mock 1.26; viability ratio to mock 1.04.
Silencing of IQSEC1 resulted in: caspase ratio to mock 1.42; viability ratio to mock 0.86.
For TFAP2D the deposit lists caspase ratio to mock 1.06; viability ratio to mock 1.14.
After knock-down of MED26, the screen gave caspase ratio to mock 2.09 (active); viability ratio to mock 1.04.
After knock-down of RERE the results were caspase ratio to mock 1.06; viability ratio to mock 1.
With knock-down of MAGOH, the screen gave caspase ratio to mock 1.27; viability ratio to mock 0.99.
Silencing of GATA1 gave: caspase ratio to mock 1.69 (active); viability ratio to mock 0.73.
After knock-down of AMDHD2, the record shows caspase ratio to mock 1.12; viability ratio to mock 0.84.
Against POLR2I, the values are caspase ratio to mock 1.18; viability ratio to mock 0.84.
With knock-down of POLR2L, the screen gave caspase ratio to mock 1.03; viability ratio to mock 0.76.
Silencing of CSE1L came out at: caspase ratio to mock 1.64 (active); viability ratio to mock 0.96.
With knock-down of CAPN12, the record shows caspase ratio to mock 0.74; viability ratio to mock 0.77.
After knock-down of CCDC59 the results were caspase ratio to mock 1.69 (active); viability ratio to mock 0.9.
PUF60 gave caspase ratio to mock 1.22; viability ratio to mock 0.87.
DDX19B scored caspase ratio to mock 0.84; viability ratio to mock 1.01.
C1orf210 showed caspase ratio to mock 2.72 (active); viability ratio to mock 0.7.
